For one molecule, binding results are on record in article PMC6739421.

This assay concerns the target phage λ terminase small subunit (TerS, gpNu1), wild type (phage λ) (UniProt P03707). Briefly: two-hybrid; bacterial adenylate cyclase two-hybrid (BACTH) in E. coli BTH101 with plasmids pKT25 and pUT18C; colour on X-gal/IPTG plates at 30°C and β-galactosidase in Miller units after overnight induction with 0.5 mM IPTG.

These are yes or no findings as the source states them, for the method shown. Some entries that bind do so weakly or less than the wild type.

B1: phage λ terminase small subunit (TerS, gpNu1), wild type (protein, UniProt P03707 1-181)
chain: MEVNKKQLADIFGASIRTIQNWQEQGMPVLRGGGKGNEVLYDSAAVIKWYAERDAEIENEKLRREVEELRQASEADLQPGTIEYERHRLTRAQADAQELKNARDSAEVVETAFCTFVLSRIAGEIASILDGLPLSVQRRFPELENRHVDFLKRDIIKAMNKAAALDELIPGLLSEYIEQSG
For B1, the binding entry is “binds”.
